Data as given in PubChem BioAssay AID504793 (Drosophila RNAi Screening Center, 2011).

Assay: 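Genes required for cells to halt at G2/M after double-strand DNA breaks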 (primary screen)
System: Drosophila S2R+ cells
Reagent: long dsRNA against Drosophila genes, about 0.25 µg dsRNA per well
Time to read-out: 4 days of dsRNA, then 4 hours of drug before read-out
Treatment: doxorubicin 0.5 µM for 4 hours to cause double-strand breaks, in cells also given a low, harmless dose of dsRNA against nbs to sensitise the assay
Detection: 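Mitotic index as the number of phospho-histone H3-positive cells in each well following doxorubicin, given as raw counts without normalisation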
Scale: mitotic cells: higher = more cells in mitosis, weaker G2 arrest
Rule for the call: 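Genes are called active only when high mitotic counts were reproduced with independent dsRNAs and mitosis was checked for delay without damage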
Meaning of the calls: active = confirmed in follow-up tests; inactive = not confirmed
The screen tested about 23,000 reagents; shown is an unselected part of those that have a named target and a result. Of all reagents, 62 (0.27%) got an active call. 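Calls come from follow-up tests whose scores are not deposited, so confirmed genes may have low counts here; counts are not normalised per plate.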 Raw values vary from plate to plate and are shown uncorrected. Entries without a mark were called inactive. Names joined by + are all predicted targets of the reagent.

The first 2 records, to show the layout:
Target gene | amplicon | mitotic cells, replicate 1 | mitotic cells, replicate 2
CG10748 | DRSC09797 | 4 | –
Pgcl (Pepsinogen C-like) | DRSC18815 | 15 | –

Results, from the first entry:
Target gene | amplicon | mitotic cells, replicate 1 | mitotic cells, replicate 2
CG10748 | DRSC09797 | 4 | –
Pgcl (Pepsinogen C-like) | DRSC18815 | 15 | –
CG7137 | DRSC07017 | 12 | –
anne (anne boleyn) | DRSC17103 | 2 | –
anne (anne boleyn) | DRSC29952 | 6 | –
Trf4-1 (Topoisomerase related function 4-1) | DRSC17775 | 13 | –
CG30065 | DRSC05420 | 2 | –
ATPsynG (ATP synthase, subunit G) | DRSC02928 | 8 | 6
flap (flapper) | DRSC03918 | 4 | –
flap (flapper) | DRSC04087 | 9 | –
CG32801 | DRSC17964 | 16 | –
CG32801 | DRSC25614 | 5 | –
Polr2J (RNA polymerase II subunit J) | DRSC02995 | 2 | –
Polr2J (RNA polymerase II subunit J) | DRSC27111 | 17 | –
CG30031 + deltaTry + gammaTry | DRSC07622 | 4 | –
CG14456 | DRSC11713 | 4 | –
CG14456 | DRSC26740 | 6 | –
MsR1 (Myosuppressin receptor 1) | DRSC08615 | 4 | –
MsR1 (Myosuppressin receptor 1) | DRSC26467 | 7 | –
TwdlD (TweedleD) | DRSC25038 | 5 | –
jdp | DRSC16975 | 7 | –
jdp | DRSC29394 | 7 | –
CG6908 | DRSC16131 | 2 | –
CG6908 | DRSC25403 | 5 | –
Ccz1 (Caffeine, calcium, zinc sensitivity 1) | DRSC08439 | 3 | –
AANATL3 (Arylalkylamine N-acetyltransferase-like 3) | DRSC02089 | 3 | –
Hacd1 (3-hydroxyacyl-CoA dehydratase 1) | DRSC02988 | 4 | –
CG7646 | DRSC11232 | 4 | –
CG42813 + CG42814 | DRSC15939 | 7 | –
CG42813 + CG42814 | DRSC15940 | 7 | –
CG14292 | DRSC14772 | 14 | –
hry (hairy) | DRSC23249 | 13 | –
hry (hairy) | DRSC30106 | 9 | –
CG9864 | DRSC07346 | 7 | –
CG9864 | DRSC28765 | 13 | –
CG11694 | DRSC14354 | 5 | –
CG11694 | DRSC24061 | 2 | –
Oamb (Octopamine receptor in mushroom bodies) | DRSC13433 | 10 | –
Oamb (Octopamine receptor in mushroom bodies) | DRSC15120 | 4 | –
Oamb (Octopamine receptor in mushroom bodies) | DRSC16763 | 11 | –
CG13784 | DRSC00974 | 6 | –
CG4269 | DRSC04457 | 7 | –
ValRS-m (Valyl-tRNA synthetase, mitochondrial) | DRSC10535 | 5 | –
CG15642 | DRSC19678 | 7 | –
CG15642 | DRSC29032 | 6 | –
